Measurements reported in article PMC9977679.
No constants are given. Whether binding was seen depends on the method and setting. Binding seen in cells or lysates may run through a third protein. Some results given as binding are weak or reduced against the parent protein; the word gives no strength.

Target: T1, Nrf2 (mouse) (UniProt Q60795)
T1 sequence: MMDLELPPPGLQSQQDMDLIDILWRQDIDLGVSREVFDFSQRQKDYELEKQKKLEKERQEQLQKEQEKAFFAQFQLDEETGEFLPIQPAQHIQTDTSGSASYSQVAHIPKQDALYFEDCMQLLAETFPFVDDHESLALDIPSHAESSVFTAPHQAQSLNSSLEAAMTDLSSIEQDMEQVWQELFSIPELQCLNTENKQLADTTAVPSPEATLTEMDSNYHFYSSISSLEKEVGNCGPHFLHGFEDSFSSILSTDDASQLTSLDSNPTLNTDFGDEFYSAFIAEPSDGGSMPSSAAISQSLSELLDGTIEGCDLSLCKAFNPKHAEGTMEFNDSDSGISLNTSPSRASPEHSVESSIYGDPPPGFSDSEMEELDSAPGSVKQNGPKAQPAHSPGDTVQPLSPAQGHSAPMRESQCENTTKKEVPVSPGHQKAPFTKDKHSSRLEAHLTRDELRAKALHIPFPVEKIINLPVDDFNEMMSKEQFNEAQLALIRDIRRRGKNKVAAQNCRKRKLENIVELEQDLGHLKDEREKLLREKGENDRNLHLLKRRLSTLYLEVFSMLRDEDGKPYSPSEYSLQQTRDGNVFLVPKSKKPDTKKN
Experiment: co-IP; 293T cells overexpressing mouse Snx25 and Nrf2; lysis in 50 mM Tris pH 7.4, 150 mM NaCl, 1% NP-40, 0.5% deoxycholic acid; lysate immunoprecipitated with anti-Nrf2 rabbit IgG on Protein G magnetic beads for 1 h, immunoblot with anti-SNX25; normal IgG as negative control

- binding: binds
B1: sorting nexin (SNX)25 (protein, UniProt Q3ZT31 1-840)
chain: MDRVLRDVFDYSYRDYILSWYGNLSRDDGQLYHLLLDDFWEIVKQIRQRLSHVDVVKVVCNDIVKALLTHFCDLKAATARHEEQPRPFVLHACLKDSHDEVRFLQTCSQVLVLCLLPSKDIQSLSLRTMLAEILTTKVLKPVVELLSNPDYINQMLLRQLEYREQMSEHHKRAYTYAPSYEDFIKLINSNSDVDFLKQLRYQIVVEIIQATTISSFPQLKRHKGKESAAMKTDLLRARNMKRYINQLTVAKKQCEKRIRILGGPAYDQQEDGASDEGEGPQSQKILQFEDIMTNPFYRERFGTYMERIDKRALVGFWESAEHLKNANKSEIPQLVSEMYQNFFVESKEISVEKSLYKEIQQCLVGNRGIEVFSKIQADVSEVLRERYYPSFLVSDLYEKLMREEEEEEPDAQLASEKDELGSGGEAGEEAVEGTSGVSDPASFAVIKLRELNEKLEYKRQALSSIQNAPKPDKKIISKLKDEILLIEKECTALQLHMARTDWWCENLGLWRASITSAEVTEENGEQMPCYFVRVNLQEVGGVETKNWTVPRRLSEFQNLHRKLSECVPSLKKVQLPSLSKLPFKSIDHKFLGKSRNQLNAFLQNLLSDERLFQSEALYAFLSPSPDYLKVIDVQGKKTSFSLSSFLEKLPRDFFSHQEEEIEEDSDLSDYGDDVDGKKDSLAEPCFMLIGEIFELRGMFKWVRRTLIALVQVTFGRTINKQIRDTVSWISSEQMLVYYISAFRDAFWPNGKLAPPTRIRSVAQSQETKQRAQQKLLENIPDTLQSLVGQQNARHGIIKIFKALQETKANKHLLYVLMELLLTELCPELRAHLDQFKAGQV
